Laboratory results published in patent US20080280828A1.
No constants are given. Whether binding was seen depends on the method and setting. For part of these data: Binding calls can cover weak binding; strength is not graded here. Sequences can lack the tags named with a protein.

Experiments:
[1] = target: human IgG Fc fragment (ICN) (human); assay: SPR (BIAcore 2000), human Fc immobilised, rIGBPMA 1 mg/ml as analyte
[2] = target: rabbit IgG F(ab')2 fragment (ICN) (rabbit); assay: SPR (BIAcore 2000), F(ab')2 immobilised, rIGBPMA as analyte
[3] = target: human IgG Fc fragment (ICN) (human); assay: SPR (BIAcore 2000), approx 4000 RU human Fc immobilised, rIGBPMA as analyte

B1: recombinant IGBPMA (rIGBPMA), N-terminal 26 amino acid truncated, C-terminal 6-His-tag, expressed in (protein)
chain: YEVYTGRGVTITVDNTQYEIPADLEKIFQKPKGFSVGSLLVALQEKGIPVNVDEKTGVILGITIDKVRVPFPVSIDLRFKLDNQIYLIPRDLAKLITVLEKKGMPSKILFILYTRYGVVPVRDSNGIVVAISFNGKQFKVKPEPLTAVVILGQKFILPRDTRKMVEFVHSKQSHPEIGFIFLKALKSAGFMLINDDDGAMRSIQKGAQIIKLGFEIRIQVIYGKTTYHVPKDLMRLVKDVRSLGPQEIQSVMKQLKAFDVQVKKEGSKLTILFNSVRYEVDLKSGNVKGHHHHHH
binding [1]: binds | binding [2]: no binding (tested: 1 mg/ml) | binding [3]: binds
